Here are results for 2 molecules from publication PMC5717064, “Alternative substrate-bound conformation of bacterial solute-binding protein involved in the import of mammalian host glycosaminoglycans” (Scientific Reports, 2017).

The chains behind the UniProt entries cited, without tags or fusion partners. Where a name states a change or a piece, a line headed by the entry shows the natural chain unless it says otherwise.
UniProt D1AWD9: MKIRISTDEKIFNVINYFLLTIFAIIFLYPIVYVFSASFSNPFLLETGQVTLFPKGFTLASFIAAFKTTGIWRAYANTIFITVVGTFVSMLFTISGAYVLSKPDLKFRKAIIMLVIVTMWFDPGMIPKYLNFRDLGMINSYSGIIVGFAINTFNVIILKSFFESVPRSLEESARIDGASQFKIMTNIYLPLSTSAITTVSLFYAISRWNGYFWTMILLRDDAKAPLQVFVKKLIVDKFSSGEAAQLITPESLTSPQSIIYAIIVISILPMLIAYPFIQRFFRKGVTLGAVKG
UniProt D1AWD8: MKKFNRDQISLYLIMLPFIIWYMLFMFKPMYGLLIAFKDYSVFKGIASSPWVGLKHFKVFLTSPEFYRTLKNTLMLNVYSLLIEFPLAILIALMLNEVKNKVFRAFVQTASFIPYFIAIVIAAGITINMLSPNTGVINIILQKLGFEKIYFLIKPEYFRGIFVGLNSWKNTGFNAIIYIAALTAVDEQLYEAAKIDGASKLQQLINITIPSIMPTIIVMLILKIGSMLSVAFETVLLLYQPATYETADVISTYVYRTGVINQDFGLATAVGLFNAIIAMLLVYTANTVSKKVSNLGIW

Results are given in words; binding and its absence hold for the method and conditions named. In cells and extracts the contact can be indirect. Binding can be weak; no strength is given.

This assay concerns the target Smon0122 with a His-tagged sequence at the C-terminus (Streptobacillus moniliformis) (UniProt D1AWD9). Put plainly: co-purification (Ni-NTA metal affinity, gel filtration); transporter purified from detergent-solubilized recombinant E. coli membrane by the C-terminal His tag of Smon0122, then Hi Load 16/60 Superdex 200 pg. For orientation: In gel filtration, larger molecules generally elute earlier.

Turning to Smon0121 (from UniProt D1AWD8), the binding result is on record as “binds”.

B1: Smon0120 (protein, UniProt D1AWD7 1-366)
chain: MAEVILKKVEKQYPNGFKAVHGIDLEIRDGEFMVFVGPSGCAKSTTLRMIAGLEDITGGEIYIGDKLVNDVPPKDRGIAMVFQNYALYPHMSVYENMAFGLKLKKTPKEEIDRRVKEAAEKLEITELLDRKPKEMSGGQRQRVALGRAIVREPKVFLFDEPLSNLDAKLRVSMRVRITQLHKELKTTMIYVTHDQVEAMTMGDRITVLKLGRIMQVDTPLNLYHRPANKFVAGFIGSPTMNLLEGELVRREERTFIDIEGALIELHPSKAEKVKGYIGKRVIFGIRPENISTTKEESTYTQIGEVSVVEQMGNEEYIYFKLSGKQMTCRMNVDGISETSKQGKELFYFDTSKAHIFDIDTEENISL
For B1, the binding result was “binds”.
